Consider one molecule from US20030009023A1.

The target in this experiment is HA-tagged mouse Wnt-3B (mouse). The experiment in a line: anti-HA immunoprecipitation of co-transfected COS7 lysates, immunoblot with N374-PEP. On the technique in general: In western blotting, separated proteins are transferred to a membrane and probed.

These are yes or no findings as the source states them, for the method shown. A result given as binding can be weak or reduced; the word gives no strength.

B1: bovine Frzb (protein)
chain: AACEPVRIPLCKSLPWNMTKMPNHLHHSTQANAILAIEQFEGLLGTHCSPDLLFFLCAMYAPICTIDFQHEPIKPCKSVCERARQGCEPILIKYRHSWPESLACEELPVYDRGVCISPEAIVTADGADFPMDSSNGNCRGASSERCKCKPVRATQKTYFRNNYNYVIRAKVKEIKTKCHDVTAVVEVKEILKASLVNIPRETVNLYTSSGCLCPPLNVNEEYLIMGYEDEERSRLLLVEGSIAEKWKDRLGKKVKRWDMKLRHLGLNTSDSSHSDSTQSQKPGRNSNSRQARN
With B1, the binding entry is “binds”.
